The whole screen tested about 400,000 compounds, of which about 13,000 (3.2%) were called active. The inconclusive results got no clear call from the source; some entries with a clear call stand among them for comparison. The call rests on the fitted dose curve; in most records, active means well fitted cell-killing curve with a large enough effect; inconclusive means small, poorly fitted or top-dose-only effect, or effect the other way; inactive means flat fitted curve, though single readings scatter. Potencies beside an inconclusive call are fits to weak or partial responses and may not hold up.
Test: qHTS assay for MDR1-selective chemotherapeutics: Primary screen using the drug-selected MDR subline cells KB-V1; further: nearly all actives have a fitted effect of over 60% in size
Details: KB-V1 MDR cells viability, CellTiter-Glo, 72 h; series mostly up to 46.1 µM
Outline: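 qHTS viability screen in drug-selected KB-V1 MDR cells: 72 h compound treatment at 37 degrees C, ATP luminescence end point.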
Potency means the concentration at half of the fitted maximal effect.

SMILES | Potency
COc1ccc(OC)c(-c2csc(N(C)C(=O)Cc3ccccc3)n2)c1 | inconclusive: 23.1 µM [cytotoxic, single point]
CCOc1cc(C)c(C(C)C)cc1S(=O)(=O)n1cnc(C)c1 | inconclusive: 10.3 µM [cytotoxic, partial curve]
CN(C)CCC=C1c2ccccc2C=Cc2ccccc21 | inconclusive: 16.4 µM [cytotoxic, single point]
CC(C)Nc1nc(NC(C)C)nc(N(C#N)CCOc2ccc(Cl)cc2Cl)n1 | inconclusive: 20.6 µM [cytotoxic, partial curve]
CCCCNC(=O)C[C@@H]1C[C@@]2(C(=O)OC)CC(C)(C)CC=C2N(Cc2ccco2)C1=O | inconclusive: 4.61 µM [cytotoxic, full curve]
Cn1c(=S)n(/N=C/c2ccc3c(c2)OCO3)c2ccccc21 | inconclusive: 16.4 µM [cytotoxic, partial curve]
COc1ccc(CCNC(=O)Cn2cc(S(=O)(=O)Cc3ccc(F)cc3)c3ccccc32)cc1OC | inactive
CCN(CC)S(=O)(=O)c1cc(C(=O)Nc2ccccn2)ccc1C | active: 23.1 µM
CN(C)C(=S)N=c1ssc(=S)n1Cc1ccccc1 | inconclusive: 0.92 µM [cytotoxic, full curve, poor fit]
CC1CC(N(C(=O)c2ccc(Cl)cc2)c2ccccc2)c2ccccc2N1C(=O)c1ccco1 (stereo unspecified) | inconclusive: 29.1 µM [cytotoxic, single point]
COc1ccc(OC)c(CCNC(=O)CS(=O)(=O)Cc2nc(-c3ccc(C)cc3)oc2C)c1 | inconclusive: 10.3 µM [cytotoxic, partial curve]
CN(C(=O)c1cccc(NC(=O)Cc2cccc(NC(=O)C3CCCN(C(=O)C4CCCC4)C3)c2)c1)C1CC1 (stereo unspecified) | inactive
CC(=O)NC1=NN(C(C)=O)C(C)(c2ccc(Cl)s2)S1 (stereo unspecified) | active: 5.8 µM
CCCCNc1nnc(SCC(=O)c2c[nH]c3ccccc23)s1 | inactive
C/C(=N\NC(=S)NCCc1ccccc1)c1cccc(Br)c1 | inconclusive: 29.1 µM [cytotoxic, single point]
CCOc1ccc(-n2ccnc(SCC(=O)Nc3ccc(OC)cc3OC)c2=O)cc1 | inconclusive: 23.1 µM [cytotoxic, partial curve, poor fit]
O=C(O)c1ccc2c(c1)N(Cc1ccc(F)cc1)C(=O)c1ccccc1S2 | inconclusive: 32.6 µM [rising, single point]
CCC(C)Nc1nc2c(c(=O)[nH]c(=O)n2C)n1CCOc1ccccc1 (stereo unspecified) | inconclusive: 0.517 µM [rising, full curve]
CCOc1ccc(NC(=O)CN(C)C(=O)C2CCCO2)cc1OCC (stereo unspecified) | inactive
CN(Cc1ccccc1)C(=O)COC(=O)c1cc(=O)c2ccccc2o1 | inactive
CCOc1ccc(C(=O)c2oc3ccccc3c2NC(=O)c2cc(-c3ccc(C)cc3)on2)cc1 | inactive
Cc1c(C(=O)NCc2cccc(C(F)(F)F)c2)sc(=O)n1Cc1cccc(F)c1 | active: 14.6 µM
Cc1cn([C@@H](CCCCNC(=O)OC(C)(C)C)C(=O)NCCCCCCCCCCC(=O)N2CCN(C(=O)OC(C)(C)C)CC2)nn1 | inactive
COc1ccc(-c2cc(C3CC3)nc(SCC(=O)c3cccs3)c2C#N)cc1 | inactive

In another format: results already given
SMILES,Potency
CCOc1cc(C)c(C(C)C)cc1S(=O)(=O)n1cnc(C)c1,"inconclusive: 10.3 µM [cytotoxic, partial curve]"
CN(C)CCC=C1c2ccccc2C=Cc2ccccc21,"inconclusive: 16.4 µM [cytotoxic, single point]"
CC(C)Nc1nc(NC(C)C)nc(N(C#N)CCOc2ccc(Cl)cc2Cl)n1,"inconclusive: 20.6 µM [cytotoxic, partial curve]"
CCCCNC(=O)C[C@@H]1C[C@@]2(C(=O)OC)CC(C)(C)CC=C2N(Cc2ccco2)C1=O,"inconclusive: 4.61 µM [cytotoxic, full curve]"
Cn1c(=S)n(/N=C/c2ccc3c(c2)OCO3)c2ccccc21,"inconclusive: 16.4 µM [cytotoxic, partial curve]"

The list goes on:

SMILES | Potency
O=C(Nc1ccc(C(O)(C(F)(F)F)C(F)(F)F)cc1)c1ccc(Cl)c([N+](=O)[O-])c1 | inconclusive: 20.6 µM [cytotoxic, single point]
O=C(Nc1ccc2c(c1)OCO2)c1ccc(Br)c(S(=O)(=O)N2CCCC2)c1 | active: 5.17 µM
COc1ccccc1CNC(=O)COCc1cc(-c2ccc3c(c2)OCO3)on1 | inconclusive: 29.1 µM [cytotoxic, single point]
O=C(N/N=C\c1ccncc1)c1ccc(Br)s1 | inconclusive: 18.4 µM [rising, single point]
CN(C)S(=O)(=O)N1CCN(S(=O)(=O)c2ccc3ccccc3c2)CC1 | inconclusive: 23.1 µM [cytotoxic, single point]
CCOc1cccc(Oc2ncccc2C(=O)/C(C#N)=C/N(C)C)c1 | inconclusive: 18.4 µM [cytotoxic, single point]
CCN1CCN(CNC(=O)c2cnccn2)CC1 | active: 23.1 µM
CCOc1ccc(-n2c(O)c(/C=N/NC(=O)C3COc4ccccc4O3)c3ccccc3c2=O)cc1 (stereo unspecified) | inconclusive: 29.1 µM [cytotoxic, single point]
O=C(COC(=O)Cc1n[nH]c(=O)c2ccccc12)Nc1c(Br)cc([N+](=O)[O-])cc1Br | inconclusive: 18.4 µM [rising, single point]
CNC(=O)NC(=O)C(OC(=O)c1cccc(S(=O)(=O)N2CCCCC2)c1)c1ccccc1 (stereo unspecified) | active: 23.1 µM
COc1ccc(NS(=O)(=O)c2cccc3ccccc23)cc1 | inconclusive: 29.1 µM [cytotoxic, single point]
O=C(Nc1ccccc1Cl)c1ccccc1CC(O)(c1ccccc1)c1ccccc1 | inconclusive: 20.6 µM [cytotoxic, single point]
COc1ccc(CNC(=O)C2CCN(C(=O)Cc3ccccc3)CC2)cc1 | inconclusive: 18.4 µM [rising, single point]
Cc1ccccc1NC(=S)NCCc1ccccc1 | active: 16.4 µM
Cc1nnc(SCc2nc3ccccc3s2)n1-c1ccccc1 | inactive
CCCCNC(=O)C1(C)CCC(=O)N1CCc1c[nH]c2ccccc12 (stereo unspecified) | inconclusive: 9.2 µM [cytotoxic, partial curve, poor fit]
COc1ccc(CN2C(=O)/C(=C/c3ccncc3)SC2=S)cc1 | inactive
Cc1cc(SCC(=O)c2ccccc2)nc(SCC(=O)c2ccccc2)n1 | inconclusive: 29.1 µM [cytotoxic, single point]
Cc1c(-n2c(SCC(C)C)nc3ccccc3c2=O)c(=O)n(-c2ccccc2)n1C | inconclusive: 20.6 µM [cytotoxic, single point]
CN(CC(=O)Nc1ccc(N2CCOCC2)cc1)C(=O)c1cn(-c2ccccc2)nc1-c1ccccc1 | inactive
Cc1onc(-c2ccccc2Cl)c1C(=O)Nc1sc2c(c1C(N)=O)CCC(C)C2 (stereo unspecified) | active: 23.1 µM
O=C(Cc1ccc(Br)cc1)N1CCOCC1 | inconclusive: 25.9 µM [rising, single point]
CCOc1ccccc1CNC(=O)Cn1nc(N2CCN(c3ccccc3)CC2)ccc1=O | inactive
CCOC(=O)N1CCC(N2CCN(S(=O)(=O)c3ccc4ccccc4c3)CC2)CC1 | active: 2.59 µM

SMILES | Potency
CC(C)Nc1nc(NC(C)C)nc(N(C)C#N)n1 | inconclusive: 23.1 µM [cytotoxic, partial curve, poor fit]
COCCn1c(SCc2nnc(-c3ccccc3)o2)nc2sc3c(c2c1=O)CCC3 | active: 6.51 µM
Cc1ccc(C)c(Sc2ccc(S(=O)(=O)Nc3ccc(C(=O)O)cc3)cc2)c1 | inactive
Cc1ccc(NC(=O)Cn2cccc2C2=NC(c3ccccc3)CO2)cc1C (stereo unspecified) | active: 14.6 µM
CNC(=O)/C(C#N)=C/c1cn(CC(=O)OC)c2ccccc12 | inactive
Cc1cccc(N(C)S(=O)(=O)c2cc3[nH]c(=O)c(=O)[nH]c3cc2C)c1 | inconclusive: 29.1 µM [rising, single point]
O=C(Nc1cccc(F)c1)C1CCCN(S(=O)(=O)c2ccccc2)C1 (stereo unspecified) | inconclusive: 8.2 µM [cytotoxic, partial curve]
CC(=O)Nc1cncc(-c2cnn(CC(C)C)c2)n1 | inactive
CCOc1ccc(N/C=C/C(=O)c2ccccc2)c([N+](=O)[O-])c1 | inconclusive: 29.1 µM [cytotoxic, single point]
COc1cc(C(=O)OCC(C)=O)ccc1OCc1c(C)noc1C | inconclusive: 29.1 µM [cytotoxic, single point]
O=C1CCC2(CCCC2)c2ccccc21 | inconclusive: 5.8 µM [rising, partial curve, poor fit]
Clc1ccc[n+](CCCCC[n+]2cccc(Cl)c2)c1 | inactive
CCOc1ccc(-c2cc(C(=O)Nc3ccc4c(c3)OCCO4)c3ccccc3n2)cc1 | inconclusive: 29.1 µM [cytotoxic, single point]
O=C1C(=O)N(C2CCN(C(=O)c3ccccc3F)CC2)CCN1Cc1ccc(F)cc1 | inconclusive: 29.1 µM [rising, single point]
Cc1ccc(NC(=O)CSc2nnc(-c3n[nH]c4ccccc34)n2-c2ccccc2)c(C)c1 | inactive
NS(=O)(=O)c1cccc(NC(=O)CSc2nnc(-c3ccncc3)n2C2CC2)c1 | inactive
CN(C)c1ccc(-c2ccnc3c2CC(C)(C(=O)Nc2ccc(Cl)c(C(F)(F)F)c2)O3)cc1 (stereo unspecified) | inconclusive: 18.4 µM [cytotoxic, partial curve, poor fit]
COc1cc(/C=N/n2c(C3CCCCC3)n[nH]c2=S)ccc1O | inactive
N#C/C(=C\c1cccnc1)c1ccc([N+](=O)[O-])cc1 | inconclusive: 18.4 µM [cytotoxic, single point]
c1ccc2c(c1)OCC(CNCC1COc3ccccc3O1)O2 (stereo unspecified) | inconclusive: 4.61 µM [rising, full curve, poor fit]
CCCc1nc2c(C)cc(Br)cn2c1Cc1ccccc1C(F)(F)F | inactive
Cc1cc(NCc2ccco2)nc2cc(O)ccc12 | inconclusive: 11.6 µM [cytotoxic, partial curve, poor fit]
O=C(Nc1ccc2nc(-c3cccs3)c(-c3cccs3)nc2c1)NC1CC1 | inconclusive: 20 µM [cytotoxic, single point]

From PubChem BioAssay AID1347076 (National Center for Advancing Translational Sciences (NCATS), 2019)
